Test [1] has as its target ERβ, exogenous (transfected) (UniProt Q92731). In words: co-IP; exogenous (transfected) proteins; lysates in IP buffer, antibody and protein A/G magnetic beads overnight at 4 °C, then immunoblotting; cells and tags not shown.
Test [2] concerns the target ERβ (estrogen receptor beta), endogenous (human (endogenous in H1793 and H1975)) (UniProt Q92731). In words: co-IP; endogenous proteins; H1793 and H1975 lysates in IP buffer, immunoprecipitated with antibodies against ERβ or ASB8 and protein A/G magnetic beads overnight at 4 °C, then immunoblotting.

The chains behind the UniProt entries cited, without tags or fusion partners.
UniProt Q92731: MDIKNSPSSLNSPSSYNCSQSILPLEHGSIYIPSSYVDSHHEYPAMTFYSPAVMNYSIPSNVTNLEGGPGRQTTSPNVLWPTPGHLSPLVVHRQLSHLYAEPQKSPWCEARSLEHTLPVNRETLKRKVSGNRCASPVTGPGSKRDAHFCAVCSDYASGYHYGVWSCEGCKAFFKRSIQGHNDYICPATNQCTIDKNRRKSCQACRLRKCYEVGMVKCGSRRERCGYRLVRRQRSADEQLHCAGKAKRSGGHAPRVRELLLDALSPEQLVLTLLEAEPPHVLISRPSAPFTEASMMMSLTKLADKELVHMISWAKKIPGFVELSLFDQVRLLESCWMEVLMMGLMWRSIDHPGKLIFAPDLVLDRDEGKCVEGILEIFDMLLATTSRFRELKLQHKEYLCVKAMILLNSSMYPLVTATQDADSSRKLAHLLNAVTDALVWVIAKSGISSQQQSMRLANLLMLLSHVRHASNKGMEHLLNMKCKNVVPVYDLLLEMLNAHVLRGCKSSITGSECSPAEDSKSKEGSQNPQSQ
UniProt Q9H765: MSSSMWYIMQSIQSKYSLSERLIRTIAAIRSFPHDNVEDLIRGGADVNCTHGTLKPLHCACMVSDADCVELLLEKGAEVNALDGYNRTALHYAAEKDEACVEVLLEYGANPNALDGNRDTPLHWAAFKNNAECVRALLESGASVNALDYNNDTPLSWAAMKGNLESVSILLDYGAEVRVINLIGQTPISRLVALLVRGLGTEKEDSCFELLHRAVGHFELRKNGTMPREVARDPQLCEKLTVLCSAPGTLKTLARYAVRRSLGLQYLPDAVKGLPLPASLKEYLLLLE

These are yes or no findings as the source states them, for the method shown. In cells and extracts the contact can be indirect. Some binding calls cover weakened binding; strength is not graded here.

On to “ASB8, exogenous (transfected) (from UniProt Q9H765 1-288)”, for which, in test [1], the binding entry is reported as “binds”.

With “ASB8, endogenous (from UniProt Q9H765 1-288)”, in test [2], the binding result was “binds”.
